The supplement of paper PMC10849652
Some of the results follow.

By UniProt entry, the sequences of proteins in these tests, tags left out. Where a name states a change or a piece, a line headed by the entry shows the natural chain unless it says otherwise.
UniProt Q9UNK0: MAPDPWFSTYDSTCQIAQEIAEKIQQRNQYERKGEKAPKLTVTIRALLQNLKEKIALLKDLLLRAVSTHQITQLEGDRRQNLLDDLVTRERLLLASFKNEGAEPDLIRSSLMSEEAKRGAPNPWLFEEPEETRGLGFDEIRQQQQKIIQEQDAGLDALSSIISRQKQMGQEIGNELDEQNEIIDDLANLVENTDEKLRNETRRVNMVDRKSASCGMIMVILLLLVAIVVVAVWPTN
UniProt Q9Y2H1: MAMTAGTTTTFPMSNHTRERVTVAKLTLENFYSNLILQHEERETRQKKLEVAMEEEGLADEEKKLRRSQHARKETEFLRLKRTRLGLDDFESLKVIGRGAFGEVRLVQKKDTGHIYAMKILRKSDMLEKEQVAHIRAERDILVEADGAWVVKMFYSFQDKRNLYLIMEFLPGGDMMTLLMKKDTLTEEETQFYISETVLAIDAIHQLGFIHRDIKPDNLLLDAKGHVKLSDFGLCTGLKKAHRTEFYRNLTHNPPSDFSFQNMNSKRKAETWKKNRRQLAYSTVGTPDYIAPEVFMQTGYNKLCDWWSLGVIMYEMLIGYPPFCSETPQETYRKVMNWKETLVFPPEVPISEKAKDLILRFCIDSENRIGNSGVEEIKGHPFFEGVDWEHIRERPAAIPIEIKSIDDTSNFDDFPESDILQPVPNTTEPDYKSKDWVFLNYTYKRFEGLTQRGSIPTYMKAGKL
UniProt Q9NVG8: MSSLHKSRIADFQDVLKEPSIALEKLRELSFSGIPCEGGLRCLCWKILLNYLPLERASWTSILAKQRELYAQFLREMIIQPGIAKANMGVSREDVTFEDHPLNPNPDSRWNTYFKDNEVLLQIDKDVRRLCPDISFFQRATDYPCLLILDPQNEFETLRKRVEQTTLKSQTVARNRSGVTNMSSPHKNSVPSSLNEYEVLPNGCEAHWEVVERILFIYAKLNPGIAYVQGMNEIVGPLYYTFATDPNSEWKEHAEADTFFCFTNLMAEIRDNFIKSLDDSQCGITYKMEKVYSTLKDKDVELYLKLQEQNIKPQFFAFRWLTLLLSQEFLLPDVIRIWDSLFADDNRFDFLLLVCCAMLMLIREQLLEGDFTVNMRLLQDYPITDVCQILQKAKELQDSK
UniProt Q15633: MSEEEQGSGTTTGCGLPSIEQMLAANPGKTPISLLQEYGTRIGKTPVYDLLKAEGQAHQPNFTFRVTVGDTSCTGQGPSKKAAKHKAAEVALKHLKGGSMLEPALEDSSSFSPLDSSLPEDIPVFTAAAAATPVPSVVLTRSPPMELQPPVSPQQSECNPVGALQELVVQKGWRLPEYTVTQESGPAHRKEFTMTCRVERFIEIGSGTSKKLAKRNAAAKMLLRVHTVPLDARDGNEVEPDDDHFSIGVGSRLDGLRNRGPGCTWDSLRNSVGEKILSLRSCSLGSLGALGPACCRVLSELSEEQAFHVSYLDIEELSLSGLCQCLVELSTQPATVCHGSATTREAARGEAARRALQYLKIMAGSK
UniProt Q9NRL3: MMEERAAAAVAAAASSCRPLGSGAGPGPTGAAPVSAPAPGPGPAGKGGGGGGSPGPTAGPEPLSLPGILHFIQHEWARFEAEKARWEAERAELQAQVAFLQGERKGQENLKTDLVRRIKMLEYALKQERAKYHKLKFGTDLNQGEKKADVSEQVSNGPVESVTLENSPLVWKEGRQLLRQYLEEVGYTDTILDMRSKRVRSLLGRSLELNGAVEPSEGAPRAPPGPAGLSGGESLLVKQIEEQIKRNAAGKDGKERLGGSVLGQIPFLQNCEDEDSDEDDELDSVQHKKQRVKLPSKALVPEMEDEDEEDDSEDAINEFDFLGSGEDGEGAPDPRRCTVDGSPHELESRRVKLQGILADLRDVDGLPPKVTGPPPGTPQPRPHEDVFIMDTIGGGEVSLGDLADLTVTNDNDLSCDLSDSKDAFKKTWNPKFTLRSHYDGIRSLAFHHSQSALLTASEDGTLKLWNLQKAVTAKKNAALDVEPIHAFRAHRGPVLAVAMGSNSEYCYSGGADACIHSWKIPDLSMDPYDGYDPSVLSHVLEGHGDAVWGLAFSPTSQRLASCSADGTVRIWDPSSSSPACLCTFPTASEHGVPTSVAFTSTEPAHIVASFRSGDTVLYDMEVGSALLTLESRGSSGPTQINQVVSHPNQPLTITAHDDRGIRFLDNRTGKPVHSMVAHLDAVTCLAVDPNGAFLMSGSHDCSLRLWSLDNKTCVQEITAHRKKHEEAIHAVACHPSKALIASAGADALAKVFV
UniProt Q9P2R7: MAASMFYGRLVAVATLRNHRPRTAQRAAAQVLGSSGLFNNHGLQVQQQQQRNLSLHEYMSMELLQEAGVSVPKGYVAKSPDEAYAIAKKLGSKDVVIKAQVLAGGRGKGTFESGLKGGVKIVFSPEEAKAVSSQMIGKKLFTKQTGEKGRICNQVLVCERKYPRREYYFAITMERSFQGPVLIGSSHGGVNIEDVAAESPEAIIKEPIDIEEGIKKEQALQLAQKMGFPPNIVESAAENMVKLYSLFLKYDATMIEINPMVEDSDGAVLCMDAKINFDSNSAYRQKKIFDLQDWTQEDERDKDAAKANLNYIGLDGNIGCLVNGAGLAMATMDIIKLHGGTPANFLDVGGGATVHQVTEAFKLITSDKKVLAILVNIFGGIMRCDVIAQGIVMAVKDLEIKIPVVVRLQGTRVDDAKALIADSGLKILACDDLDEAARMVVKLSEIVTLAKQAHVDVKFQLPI
UniProt Q15208: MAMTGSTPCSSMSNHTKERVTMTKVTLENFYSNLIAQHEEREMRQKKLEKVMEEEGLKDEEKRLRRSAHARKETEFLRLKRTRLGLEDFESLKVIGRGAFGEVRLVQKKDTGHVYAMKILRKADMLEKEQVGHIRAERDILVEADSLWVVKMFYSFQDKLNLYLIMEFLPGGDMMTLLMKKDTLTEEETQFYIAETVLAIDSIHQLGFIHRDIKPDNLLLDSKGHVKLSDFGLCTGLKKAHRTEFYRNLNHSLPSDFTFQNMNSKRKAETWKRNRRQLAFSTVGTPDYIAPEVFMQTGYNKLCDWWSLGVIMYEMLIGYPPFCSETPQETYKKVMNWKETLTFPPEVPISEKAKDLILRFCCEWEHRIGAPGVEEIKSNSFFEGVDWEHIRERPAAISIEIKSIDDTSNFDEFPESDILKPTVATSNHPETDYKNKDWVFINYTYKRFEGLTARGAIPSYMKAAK
UniProt O60506: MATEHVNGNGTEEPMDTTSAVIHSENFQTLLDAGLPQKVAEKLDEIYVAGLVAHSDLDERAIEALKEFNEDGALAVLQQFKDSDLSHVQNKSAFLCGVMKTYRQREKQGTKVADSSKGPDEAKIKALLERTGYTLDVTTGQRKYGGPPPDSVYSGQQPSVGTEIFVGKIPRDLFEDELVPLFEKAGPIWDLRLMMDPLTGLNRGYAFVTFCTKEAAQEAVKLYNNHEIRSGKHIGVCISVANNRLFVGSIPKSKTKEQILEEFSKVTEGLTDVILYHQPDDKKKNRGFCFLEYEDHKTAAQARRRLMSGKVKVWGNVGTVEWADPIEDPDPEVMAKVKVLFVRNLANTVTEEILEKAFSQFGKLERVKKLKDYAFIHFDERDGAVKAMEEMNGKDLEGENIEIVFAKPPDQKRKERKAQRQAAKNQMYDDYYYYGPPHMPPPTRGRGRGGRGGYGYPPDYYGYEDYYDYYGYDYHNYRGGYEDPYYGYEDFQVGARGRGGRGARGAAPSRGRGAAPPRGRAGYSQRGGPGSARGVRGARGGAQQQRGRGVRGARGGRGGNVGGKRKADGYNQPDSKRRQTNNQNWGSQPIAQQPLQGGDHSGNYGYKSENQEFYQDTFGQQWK
UniProt Q9NZ72: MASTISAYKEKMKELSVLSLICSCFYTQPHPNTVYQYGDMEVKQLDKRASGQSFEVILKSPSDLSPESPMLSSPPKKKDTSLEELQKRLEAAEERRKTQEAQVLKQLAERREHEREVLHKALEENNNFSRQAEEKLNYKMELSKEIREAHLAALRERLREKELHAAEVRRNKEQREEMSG
UniProt Q5VSL9: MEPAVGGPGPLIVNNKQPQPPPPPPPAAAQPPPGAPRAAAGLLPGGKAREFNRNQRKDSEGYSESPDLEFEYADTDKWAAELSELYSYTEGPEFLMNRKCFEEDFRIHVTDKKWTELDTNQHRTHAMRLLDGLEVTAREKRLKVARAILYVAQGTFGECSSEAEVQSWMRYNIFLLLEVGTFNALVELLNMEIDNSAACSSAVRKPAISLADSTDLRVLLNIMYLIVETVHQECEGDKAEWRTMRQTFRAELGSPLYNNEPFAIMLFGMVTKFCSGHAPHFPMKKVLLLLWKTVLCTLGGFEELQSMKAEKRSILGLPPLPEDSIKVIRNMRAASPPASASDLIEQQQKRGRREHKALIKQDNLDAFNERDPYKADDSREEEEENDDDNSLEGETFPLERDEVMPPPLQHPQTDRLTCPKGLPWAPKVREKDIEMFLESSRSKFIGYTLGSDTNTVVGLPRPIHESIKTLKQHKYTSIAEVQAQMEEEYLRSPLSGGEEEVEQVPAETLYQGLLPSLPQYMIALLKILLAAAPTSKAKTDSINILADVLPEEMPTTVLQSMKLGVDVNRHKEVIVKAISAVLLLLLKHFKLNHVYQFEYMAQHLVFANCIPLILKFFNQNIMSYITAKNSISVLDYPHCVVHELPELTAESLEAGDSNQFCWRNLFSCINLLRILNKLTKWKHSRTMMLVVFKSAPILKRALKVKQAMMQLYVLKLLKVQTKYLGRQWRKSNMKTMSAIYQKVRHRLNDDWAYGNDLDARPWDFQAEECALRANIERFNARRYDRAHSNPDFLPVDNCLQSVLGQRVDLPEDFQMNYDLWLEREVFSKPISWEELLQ
UniProt Q7Z422: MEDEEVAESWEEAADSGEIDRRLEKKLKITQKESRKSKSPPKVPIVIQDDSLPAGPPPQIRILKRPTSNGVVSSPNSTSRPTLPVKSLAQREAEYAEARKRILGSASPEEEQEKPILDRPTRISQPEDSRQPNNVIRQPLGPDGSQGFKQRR
UniProt Q13395: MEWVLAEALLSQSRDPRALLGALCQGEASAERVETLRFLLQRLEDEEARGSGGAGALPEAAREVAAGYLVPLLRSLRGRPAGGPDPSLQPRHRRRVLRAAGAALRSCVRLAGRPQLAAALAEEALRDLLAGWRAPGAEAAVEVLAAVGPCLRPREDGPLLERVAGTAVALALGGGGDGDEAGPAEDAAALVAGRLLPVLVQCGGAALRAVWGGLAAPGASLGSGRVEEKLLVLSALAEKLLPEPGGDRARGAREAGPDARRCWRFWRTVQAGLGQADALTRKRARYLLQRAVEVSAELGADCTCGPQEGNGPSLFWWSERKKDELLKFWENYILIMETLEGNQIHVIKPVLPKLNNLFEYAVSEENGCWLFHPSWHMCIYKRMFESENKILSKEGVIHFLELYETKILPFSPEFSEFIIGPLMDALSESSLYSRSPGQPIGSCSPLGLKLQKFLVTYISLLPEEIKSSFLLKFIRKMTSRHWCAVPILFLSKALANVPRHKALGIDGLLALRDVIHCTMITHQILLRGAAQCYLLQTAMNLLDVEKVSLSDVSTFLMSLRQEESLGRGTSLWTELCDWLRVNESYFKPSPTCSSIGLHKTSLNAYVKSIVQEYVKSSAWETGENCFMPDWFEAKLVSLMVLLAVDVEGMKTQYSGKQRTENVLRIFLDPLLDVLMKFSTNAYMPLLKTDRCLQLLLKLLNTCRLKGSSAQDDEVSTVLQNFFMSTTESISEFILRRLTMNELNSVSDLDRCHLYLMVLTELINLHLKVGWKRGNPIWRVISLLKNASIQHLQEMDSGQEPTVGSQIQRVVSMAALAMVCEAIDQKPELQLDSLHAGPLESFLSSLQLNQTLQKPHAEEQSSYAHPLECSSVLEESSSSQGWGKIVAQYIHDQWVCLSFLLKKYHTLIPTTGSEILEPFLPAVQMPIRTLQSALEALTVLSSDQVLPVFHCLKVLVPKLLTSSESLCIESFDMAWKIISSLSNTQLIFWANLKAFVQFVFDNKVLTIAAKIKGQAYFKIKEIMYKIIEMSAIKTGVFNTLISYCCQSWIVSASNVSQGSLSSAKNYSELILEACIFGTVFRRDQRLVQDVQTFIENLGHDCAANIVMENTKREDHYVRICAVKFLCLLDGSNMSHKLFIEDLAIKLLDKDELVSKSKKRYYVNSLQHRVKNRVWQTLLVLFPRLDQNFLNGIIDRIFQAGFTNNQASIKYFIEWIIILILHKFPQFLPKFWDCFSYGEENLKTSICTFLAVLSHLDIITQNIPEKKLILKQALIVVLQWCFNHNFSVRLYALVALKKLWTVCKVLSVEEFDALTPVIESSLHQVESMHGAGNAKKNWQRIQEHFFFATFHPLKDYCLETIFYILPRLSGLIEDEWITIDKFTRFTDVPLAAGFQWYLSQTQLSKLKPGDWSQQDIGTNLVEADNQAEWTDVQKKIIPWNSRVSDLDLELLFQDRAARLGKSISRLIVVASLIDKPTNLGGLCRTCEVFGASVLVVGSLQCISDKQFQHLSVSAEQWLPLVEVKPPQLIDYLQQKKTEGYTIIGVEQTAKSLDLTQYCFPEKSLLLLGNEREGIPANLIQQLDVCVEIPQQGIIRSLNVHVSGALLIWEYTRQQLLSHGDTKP

Assays:
Assay in all cases: log2 fold change, soluble protein after heating vs DMSO (PISA); higher = thermal stabilisation; K562 cells, 10 uM, 30 min; active = over 0.2 and 3.5 SD of the protein, either way, in both replicates (recomputed)
[1] = compound: NC(=O)Nc1cc(-c2cccc(F)c2)sc1C(=O)N[C@H]1CCCNC1
Summary of the method: (§1)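 Soluble protein was defined as the supernatant after 21,000xg for 90 min. It came from K562 cells at 2×10^6 cells/mL given 10 μM compound for 30 min, heated in aliquots for 3 min across 48°C-58°C, pooled, and extracted in PBS with 0.5% NP-40 at 4°C, and was quantified by TMTpro 16plex LC-MS/MS with equalised channel sums. Thermal stability against control samples, from duplicates, is reported as log2 fold change.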

[2] = compound: NC(=O)c1cnc(N[C@@H]2CCCC[C@@H]2N)nc1Nc1cccc(-n2nccn2)c1
Summary of the method: as §1

[3] = compound: NC1(c2ccc(-c3nc4ccn5c(=O)[nH]nc5c4cc3-c3ccccc3)cc2)CCC1
Summary of the method: as §1

[4] = compound: NCC(=O)Nc1ccc(-n2nc(C(F)(F)F)cc2-c2ccc3c(ccc4ccccc43)c2)cc1
Summary of the method: as §1

entinostat = compound: Nc1ccccc1NC(=O)c1ccc(CNC(=O)OCc2cccnc2)cc1 [entinostat]
Summary of the method: as §1

vorinostat = compound: O=C(CCCCCCC(=O)Nc1ccccc1)NO [vorinostat]
Summary of the method: as §1

citarinostat = compound: O=C(CCCCCCNC(=O)c1cnc(N(c2ccccc2)c2ccccc2Cl)nc1)NO [citarinostat]
Summary of the method: as §1

silmitasertib = compound: O=C(O)c1ccc2c(c1)nc(Nc1cccc(Cl)c1)c1ccncc12 [silmitasertib]
Summary of the method: as §1

[5] = compound: O=C1NC(=O)C(c2cnc3ccccn23)=C1c1cn2c3c(cc(F)cc13)CN(C(=O)N1CCCCC1)CC2
Summary of the method: as §1

[6] = compound: c1cc(OCCN2CCCCC2)cc(-c2n[nH]c3ccc(-c4nnc[nH]4)cc23)c1
Summary of the method: as §1

Measured: log2 fold change

STX8 (UniProt Q9UNK0)
inactive: [1] 0.067 | [2] 0.042 | [3] -0.073 | [4] 0.022 | entinostat -0.007 | vorinostat -0.018 | citarinostat 0.006 | silmitasertib 0.041 | [5] 0.028 | [6] -0.03

STK38L (UniProt Q9Y2H1)
inactive: [1] -0.046 | [2] -0.015 | [3] -0.117 | [4] 0.078 | entinostat 0.109 | vorinostat 0.02 | citarinostat 0.036 | silmitasertib 0.101 | [5] -0.078 | [6] 0.05

STX5 (UniProt Q13190)
inactive: [1] -0.03 | [2] 0.026 | [3] -0.152 | [4] -0.065 | entinostat 0.019 | vorinostat 0.042 | citarinostat 0.044 | silmitasertib 0.025 | [5] 0.074 | [6] -0.079

SYNJ1 (UniProt O43426)
inactive: [1] -0.105 | [2] 0.027 | [3] 0.063 | [4] -0.017 | entinostat 0.007 | vorinostat -0.001 | citarinostat -0.036 | silmitasertib 0.011 | [5] -0.092 | [6] -0.104

TAPBP isoform 3 (UniProt O15533)
inactive: [1] 0.198 | [2] 0.12 | [3] -0.139 | [4] -0.041 | entinostat 0.392 | vorinostat 0.259 | citarinostat 0.164 | silmitasertib -0.029 | [5] -0.216 | [6] 0.044

SURF4 (UniProt O15260)
inactive: [1] -0.002 | [2] -0.011 | [3] -0.01 | [4] 0.021 | entinostat -0.02 | vorinostat -0.046 | citarinostat 0.031 | silmitasertib 0.022 | [5] 0.028 | [6] -0.037

TBC1D13 (UniProt Q9NVG8)
inactive: [1] -0.021 | [2] 0.031 | [3] -0.07 | [4] -0.014 | entinostat -0.03 | vorinostat -0.014 | citarinostat 0.039 | silmitasertib 0.009 | [5] -0.087 | [6] -0.015

TARBP2 (UniProt Q15633)
inactive: [1] 0.021 | [2] -0.047 | [3] 0.011 | [4] -0.033 | entinostat -0.241 | vorinostat -0.14 | citarinostat -0.079 | silmitasertib 0.113 | [5] 0.108 | [6] -0.17

STRN4 isoform 3 (UniProt Q9NRL3)
inactive: [1] -0.04 | [2] 0.005 | [3] -0.054 | [4] -0.018 | entinostat 0.006 | vorinostat -0.126 | citarinostat 0.031 | silmitasertib 0 | [5] -0.155 | [6] -0.045

SUB1 (UniProt P53999)
inactive: [1] -0.007 | [2] -0.009 | [3] 0.008 | [4] -0.018 | entinostat -0.025 | vorinostat -0.002 | citarinostat -0.035 | silmitasertib -0.02 | [5] -0.06 | [6] 0.062

SUPT16H (UniProt Q9Y5B9)
inactive: [1] -0.017 | [2] -0.111 | [3] -0.183 | [4] -0.158 | entinostat 0.207 | vorinostat 0.178 | citarinostat 0.198 | silmitasertib 0.109 | [5] -0.227 | [6] 0.025

SYNJ2BP-COX16, A0A087WYV9
inactive: [1] -0.016 | [2] -0.064 | [3] 0.011 | [4] -0.004 | entinostat -0.076 | vorinostat -0.004 | citarinostat -0.031 | silmitasertib 0.04 | [5] 0.012 | [6] 0.011

SVBP (UniProt Q8N300)
inactive: [1] 0.125 | [2] 0.082 | [3] 0.142 | [4] 0.099 | entinostat -0.037 | vorinostat -0.107 | citarinostat -0.056 | silmitasertib 0.001 | [5] 0.047 | [6] 0.03

SUCLA2 (UniProt Q9P2R7)
inactive: [1] -0.021 | [2] -0.058 | [3] -0.128 | [4] -0.077 | entinostat 0.014 | vorinostat 0.107 | citarinostat 0.068 | silmitasertib -0.039 | [5] -0.028 | [6] -0.046

STXBP2 isoform 3 (UniProt Q15833)
inactive: [1] -0.084 | [2] -0.066 | [3] -0.12 | [4] -0.051 | entinostat 0.035 | vorinostat 0.105 | citarinostat 0.046 | silmitasertib 0.112 | [5] 0.141 | [6] 0.036

STK38 (UniProt Q15208)
inactive: [1] -0.072 | [2] -0.077 | [3] -0.11 | [4] -0.062 | entinostat 0.129 | vorinostat 0.016 | citarinostat 0.097 | silmitasertib 0.061 | [5] 0.004 | [6] -0.086

TAF15 (UniProt Q92804)
inactive: [1] 0 | [2] 0.032 | [3] 0.192 | [4] -0.018 | entinostat -0.052 | vorinostat -0.002 | citarinostat -0.021 | silmitasertib 0.069 | [5] 0.089 | [6] -0.112

2 consecutive entries out of the list so far, for reference:
SUB1 (UniProt P53999)
inactive: [1] -0.007 | [2] -0.009 | [3] 0.008 | [4] -0.018 | entinostat -0.025 | vorinostat -0.002 | citarinostat -0.035 | silmitasertib -0.02 | [5] -0.06 | [6] 0.062

SUPT16H (UniProt Q9Y5B9)
inactive: [1] -0.017 | [2] -0.111 | [3] -0.183 | [4] -0.158 | entinostat 0.207 | vorinostat 0.178 | citarinostat 0.198 | silmitasertib 0.109 | [5] -0.227 | [6] 0.025

The list continues:

SYNCRIP isoform 3 (UniProt O60506)
inactive: [1] -0.042 | [2] -0.062 | [3] 0.151 | [4] 0.01 | entinostat 0.227 | vorinostat 0.061 | citarinostat -0.1 | silmitasertib 0.112 | [5] 0.198 | [6] -0.128

STT3B (UniProt Q8TCJ2)
inactive: [1] -0.026 | [2] -0.051 | [3] -0.047 | [4] 0.061 | entinostat 0.041 | vorinostat -0.042 | citarinostat 0.027 | silmitasertib 0.124 | [5] 0.001 | [6] -0.045

STMN3 (UniProt Q9NZ72)
inactive: [1] -0.124 | [2] -0.006 | [3] -0.004 | [4] 0.016 | entinostat -0.001 | vorinostat -0.012 | citarinostat 0.068 | silmitasertib -0.008 | [5] -0.012 | [6] 0.011

STRIP1 (UniProt Q5VSL9)
inactive: [1] 0.101 | [2] 0.021 | [3] -0.023 | [4] 0.038 | entinostat 0.026 | vorinostat -0.011 | citarinostat 0.103 | silmitasertib -0.001 | [5] 0.078 | [6] 0.021

SYNRG (UniProt Q9UMZ2)
inactive: [1] -0.022 | [2] -0.055 | [3] -0.054 | [4] -0.023 | entinostat 0.001 | vorinostat 0.085 | citarinostat 0.045 | silmitasertib 0.101 | [5] 0.003 | [6] -0.023

SZRD1 (UniProt Q7Z422)
inactive: [1] -0.056 | [2] -0.006 | [3] 0.042 | [4] -0.055 | entinostat -0.022 | vorinostat -0.002 | citarinostat -0.016 | silmitasertib 0.03 | [5] -0.01 | [6] 0.015

STRBP (UniProt Q96SI9)
inactive: [1] -0.153 | [2] 0.02 | [3] 0.064 | [4] -0.283 | entinostat 0.028 | citarinostat -0.113 | silmitasertib 0.01 | [5] 0.147 | [6] -0.198

TAF6L (UniProt Q9Y6J9)
inactive: [1] -0.038 | [2] -0.067 | [3] -0.061 | entinostat 0.033 | vorinostat 0.248 | silmitasertib 0.303

SYVN1 (UniProt Q86TM6)
inactive: [1] 0.001 | [2] -0.051 | [3] -0.033 | [4] -0.06 | entinostat -0.013 | vorinostat -0.042 | citarinostat 0.031 | silmitasertib 0.002 | [5] 0.005 | [6] -0.051

TAGLN3 (UniProt Q9UI15)
inactive: [1] -0.17 | [2] -0.179 | [3] -0.141 | [4] 0.022 | entinostat -0.072 | silmitasertib -0.158 | [5] -0.057

SYNE2 isoform 2 (UniProt Q8WXH0)
inactive: [1] -0.229 | [2] -0.172 | [3] 0.087 | [4] -0.134 | entinostat -0.125 | vorinostat 0.072 | citarinostat 0.053 | silmitasertib -0.056 | [6] 0.03

TARBP1 (UniProt Q13395)
inactive: [1] -0.033 | [2] 0.048 | [3] -0.027 | [4] 0.014 | entinostat -0.044 | vorinostat 0.003 | citarinostat 0.079 | silmitasertib 0.034 | [5] 0.053 | [6] 0
